Measurements taken from PubChem BioAssay AID504847 (National Center for Advancing Translational Sciences (NCATS), 2011).
About 3,700 (0.93%) of roughly 400,000 compounds were called active. This list was built around the results that the source calls inconclusive (neither active nor inactive); the mix of calls is not that of the screen. Calls come from the whole dose curve; as a rule, active = well fitted inhibition curve with a large enough effect; inconclusive = small, poorly fitted or top-dose-only effect, or another doubt; inactive = no such curve, though single readings can be large or run the other way. A potency beside an inconclusive call is a rough fit, not a confirmed value.

Sequences of proteins named here, by UniProt entry; tags and fusion partners are left off. A change or cut given only in a name is not applied to a line headed by its entry.
UniProt P11473: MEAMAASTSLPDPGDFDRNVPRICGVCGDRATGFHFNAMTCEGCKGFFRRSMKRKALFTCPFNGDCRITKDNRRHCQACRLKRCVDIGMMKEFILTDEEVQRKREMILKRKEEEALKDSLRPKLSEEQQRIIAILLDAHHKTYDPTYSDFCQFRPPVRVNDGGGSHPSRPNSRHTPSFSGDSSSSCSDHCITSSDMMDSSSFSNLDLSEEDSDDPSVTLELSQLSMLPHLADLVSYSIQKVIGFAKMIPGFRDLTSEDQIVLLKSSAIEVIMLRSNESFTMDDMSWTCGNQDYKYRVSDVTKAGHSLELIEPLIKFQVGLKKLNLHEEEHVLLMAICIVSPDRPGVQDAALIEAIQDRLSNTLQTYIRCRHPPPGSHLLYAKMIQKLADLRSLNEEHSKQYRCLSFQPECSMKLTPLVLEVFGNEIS

target: Vitamin D3 receptor (Homo sapiens) (UniProt P11473); assay: Inhibitors of the vitamin D receptor (VDR): qHTS; conditions: VDR-SRC2-3 peptide fluorescence polarization, 2 h; max response, negative = inhibition: stronger effect = lower value
Procedure, shortened: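 Reagent solutions, kept cold and dark, are dispensed first; compounds are then pinned in at 23 nl, plates briefly spun, and incubated 2 h at ambient temperature. Inhibition of VDR–SRC2-3 peptide binding is read by fluorescence polarization.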
% is set by controls: 0 for no effect and ±100 for the full control effect; potency is the fitted concentration of half-maximal effect.

Question: With `CCC(C)(C)NC(=O)c1cc([N+](=O)[O-])ccc1N1CCCCC1` as the compound, how does the Potency read?
Answer: inconclusive: 11.2 µM [inhibitor, partial curve, poor fit]

Question: Which Potency does the source give for `CCCc1nnc(NC(=O)c2nc(S(=O)(=O)Cc3cccc(C)c3)ncc2Cl)s1` here?
Answer: active: 14.1 µM

Question: For `CC(C)(CO)NCc1ccc(Br)cc1`, which Potency is on record?
Answer: active: 28.2 µM

Question: Which max response, negative = inhibition does the source give for `COc1ccc(N2CC(NC(=O)c3ccco3)CC2=O)cc1` (centres undefined) here?
Answer: inactive: -5.88%

Question: How did the Potency turn out when `O=c1onc2n1-c1cc(Br)ccc1OC2` was run?
Answer: inconclusive: 100 µM [inhibitor, partial curve, poor fit]

Question: Which Potency does the source give for `COc1ccc(Oc2ccc(/C=C/C(=O)c3cccc(OC)c3)cc2[N+](=O)[O-])cc1` here?
Answer: inconclusive: 39.8 µM [inhibitor, partial curve, poor fit]

Question: How did the Potency turn out when `COc1ccccc1/C=C/C(=O)c1cc(Br)ccc1OC(=O)c1ccco1` was run?
Answer: inconclusive: 2.82 µM [inhibitor, full curve, poor fit]

Question: With `O=C(Nc1ccccc1Br)C(Cc1ccccc1)NS(=O)(=O)c1cccc2nsnc12` (centres undefined) as the compound, how does the Potency read?
Answer: inconclusive: 89.1 µM [inhibitor, single point]

Question: Which max response, negative = inhibition does the source give for `S=C(NCCc1ccc(Cl)cc1)NCc1ccco1` here?
Answer: inactive: -5.4%

Question: Which Potency does the source give for `Cc1ccc(NC(=O)c2cc3ccccc3cc2O)cc1` here?
Answer: inconclusive: 79.4 µM [inhibitor, single point]

Question: `CCN(Cc1ccccc1)C(=O)Cn1c(=O)n(-c2ccc(Cl)cc2)c(=O)c2c(C)c(C(=O)N(C)C)sc21` was tested. Which max response, negative = inhibition did it give?
Answer: inactive: 12.3%

Question: With `O=[N+]([O-])c1ccc(-c2csc3[n+]2CCS3)cc1` as the compound, how does the Potency read?
Answer: inconclusive: 89.1 µM [inhibitor, single point]

Question: `CCOC(=O)C1=C(O)/C(=C/c2ccc(OCC(=O)O)c(OCC)c2)SC1=Nc1ccc(OC)cc1` was tested. Which Potency did it give?
Answer: inconclusive: 44.7 µM [inhibitor, partial curve, poor fit]

Question: How did the Potency turn out when `Cc1c2ccccc2nc2c(F)c(NCCO)c(F)c(F)c12` was run?
Answer: inconclusive: 89.1 µM [inhibitor, single point]

Question: Which max response, negative = inhibition does the source give for `CC(C)(C)NC(=O)C(=O)NNC(=O)c1ccccc1` here?
Answer: inactive: -8.26%

Question: For `Cc1ccc(C)c(CNC(=O)CCn2cccn2)c1`, which max response, negative = inhibition is on record?
Answer: inactive: 11.2%

Question: `O=C1C(Cl)=C(Oc2ccccc2)C(=O)c2ccccc21` was tested. Which Potency did it give?
Answer: active: 7.08 µM

Question: Which Potency does the source give for `CC(CCc1ccccc1)NC(=O)COC(=O)c1ccc(S(C)(=O)=O)c([N+](=O)[O-])c1` (centres undefined) here?
Answer: inconclusive: 89.1 µM [inhibitor, single point]

Question: For `Cc1noc(/C=C/c2nn(C)cc2Cl)c1[N+](=O)[O-]`, which Potency is on record?
Answer: inconclusive: 63.1 µM [inhibitor, partial curve, poor fit]

Question: How did the Potency turn out when `NS(=O)(=O)c1ccc(NC(=S)N2CCC(Cc3ccccc3)CC2)cc1` was run?
Answer: inconclusive: 89.1 µM [inhibitor, single point]

Question: `CCNc1ccc(C(=O)OCC)cc1NC(=O)c1cccc(S(=O)(=O)N(C)c2ccccc2)c1` was tested. Which max response, negative = inhibition did it give?
Answer: inactive: -16.6%

Question: With `CN(Cc1cnccn1)C(=O)C1CCC(=O)N(CCc2ccc(Cl)cc2)C1` (centres undefined) as the compound, how does the max response, negative = inhibition read?
Answer: inactive: -11.4%

Question: `O=C(CCC(=O)c1cccs1)NNC(=O)c1ccccc1O` was tested. Which max response, negative = inhibition did it give?
Answer: inactive: 1.97%

Question: How did the max response, negative = inhibition turn out when `CN1C(=O)/C(=C/c2ccccc2OCc2ccccc2F)NC1=S` was run?
Answer: inactive: -20%

Question: Which Potency does the source give for `c1ccc(-c2csc3nnc(SCc4ccc5c(c4)OCO5)n23)cc1` here?
Answer: active: 79.4 µM

Question: How did the Potency turn out when `O=c1cc(O)nc(-c2ccc(Cl)cc2)s1` was run?
Answer: inconclusive: 89.1 µM [inhibitor, partial curve]

Question: For `Cc1c(NC(=S)NC(=O)c2ccc(-c3ccc(Cl)cc3)o2)cccc1C(=O)O`, which Potency is on record?
Answer: inconclusive: 56.2 µM [inhibitor, partial curve, poor fit]

Question: How did the Potency turn out when `Oc1ccc(/C=N/NC(=S)N/N=C/c2ccc(O)cc2)cc1` was run?
Answer: inconclusive: 20 µM [inhibitor, partial curve, poor fit]

Question: How did the max response, negative = inhibition turn out when `CC1CCCCC1NC(=O)c1ccc(CSc2nc3ccncc3[nH]2)cc1` (centres undefined) was run?
Answer: inactive: -7.59%

Question: For `Cc1ccc(/C(=C\CN2CCCC2)c2ccccn2)cc1`, which max response, negative = inhibition is on record?
Answer: inactive: 2.67% [middle of 5 runs]

Question: `O=C(c1ccccc1)C(CN1CCCCC1)c1ccccc1` (centres undefined) was tested. Which Potency did it give?
Answer: active: 25.1 µM

Question: `Cn1c(=O)c2cc(S(=O)(=O)NC(Cc3ccccc3)C(=O)NCc3ccco3)ccc2n(C)c1=O` (centres undefined) was tested. Which max response, negative = inhibition did it give?
Answer: inactive: -22.9%

Question: With `COC(=O)C(C(=O)OC)C1c2ccccc2C=C(C2CC2)N1C(=O)OC` (centres undefined) as the compound, how does the Potency read?
Answer: inconclusive: 44.7 µM [inhibitor, partial curve, poor fit]

Question: For `Cc1ccc(C(=O)Nc2sc(C)c(C)c2C(=O)c2ccccc2)cc1`, which Potency is on record?
Answer: active: 44.7 µM

Question: How did the max response, negative = inhibition turn out when `CN1CCN(S(=O)(=O)c2cccc(C(=O)N(C)CC(=O)Nc3ccc(F)c(F)c3F)c2)CC1` was run?
Answer: inactive: 18%

Question: With `O=S(=O)(NC1CCCCC1Sc1ncccn1)c1ccccc1` (centres undefined) as the compound, how does the Potency read?
Answer: inconclusive: 79.4 µM [inhibitor, partial curve]

Question: `COc1ccccc1-c1nn2c(C3COc4ccccc4O3)nnc2s1` (centres undefined) was tested. Which Potency did it give?
Answer: active: 70.8 µM

Question: `O=C(NCC1CCCO1)c1onc(CSc2cccc3ccccc23)c1C(=O)O` (centres undefined) was tested. Which Potency did it give?
Answer: inconclusive: 89.1 µM [inhibitor, partial curve, poor fit]

Question: Which Potency does the source give for `CC(=O)Nc1ccc(C2=NNC(=Nc3cccc(S(=O)(=O)N(C)C)c3)SC2)cc1` here?
Answer: inconclusive: 11.2 µM [inhibitor, partial curve, poor fit]

Question: For `NC(CSCc1cccc(Br)c1)C(=O)O` (centres undefined), which Potency is on record?
Answer: inconclusive: 79.4 µM [inhibitor, single point]

Question: `Cc1ccccc1NC(=O)c1nc(S(C)(=O)=O)ncc1Cl` was tested. Which Potency did it give?
Answer: active: 39.8 µM

Question: For `O=C(O)c1cccc(Nc2nc3ccccc3nc2NS(=O)(=O)c2ccccc2)c1`, which Potency is on record?
Answer: inconclusive: 70.8 µM [inhibitor, partial curve]

Question: How did the Potency turn out when `COC(=O)Cc1ccc(NC(=S)N2CCN(c3ccc(OC)cc3)CC2)cc1` was run?
Answer: inconclusive: 89.1 µM [inhibitor, single point]

Question: How did the Potency turn out when `COc1cccc(NS(=O)(=O)c2ccc3c(c2)C2C=CCC2C(c2ccc(C(=O)O)cc2)N3)c1` (centres undefined) was run?
Answer: inconclusive: 89.1 µM [inhibitor, single point]

Question: With `COc1cc(C(=O)NC(C)Cc2cccs2)cc(OC)c1OC` (centres undefined) as the compound, how does the Potency read?
Answer: inconclusive: 89.1 µM [inhibitor, single point]

Question: `Cc1ccc(Cl)cc1-n1c(=O)cc(N2CCN(c3ccc(F)cc3)CC2)[nH]c1=O` was tested. Which max response, negative = inhibition did it give?
Answer: inactive: 0.233%

Question: How did the Potency turn out when `CCCCS(=O)(=O)c1oc(-c2cccs2)nc1S(=O)(=O)c1ccccc1` was run?
Answer: active: 10 µM

Question: With `CCOc1ccc(NC(=S)N2CCN(S(=O)(=O)c3ccc(OC)cc3)CC2)cc1` as the compound, how does the Potency read?
Answer: inconclusive: 89.1 µM [inhibitor, single point]

Question: How did the max response, negative = inhibition turn out when `CCC[C@@H](CN1CCC[C@H]1CN1C(N)=NC[C@H]1C(C)C)N1C[C@@H](Cc2ccccc2)N(CCCC2CCCC2)C1=N` was run?
Answer: inactive: -8.22%

Question: `C/C(CC(=O)Nc1ccc(F)cc1)=N\NC(=O)COc1ccccc1` was tested. Which Potency did it give?
Answer: inconclusive: 89.1 µM [inhibitor, single point]

Question: How did the Potency turn out when `Cc1ccccc1CS(=O)(=O)c1nnc([C@H](CC(C)C)NC(=O)OC(C)(C)C)o1` was run?
Answer: active: 20 µM

Question: `CCc1ccccc1N(CC(=O)NCCc1ccccc1)C(=O)CCC(=O)Nc1ccccn1` was tested. Which Potency did it give?
Answer: inconclusive: 100 µM [inhibitor, single point]

Question: `Cc1nc([N+](=O)[O-])c(Br)n1Cc1ccc(Cl)c(Cl)c1` was tested. Which Potency did it give?
Answer: inconclusive: 56.2 µM [inhibitor, partial curve, poor fit]

Question: `O=C(Nc1ccc(N2CCCC2)c(Cl)c1)c1cccc(-c2cc3ccccc3oc2=O)c1` was tested. Which max response, negative = inhibition did it give?
Answer: inactive: 9.62%

Question: With `CN1C(=O)CSC1=Nc1ccc(Br)cc1` as the compound, how does the max response, negative = inhibition read?
Answer: inactive: 0.0895%

Question: With `CC(C)C[C@@H](CNCC(=O)[C@H](C)NC(=O)c1[nH]cnc1C(=O)N[C@@H](C)CN)NC(=O)c1nc[nH]c1C(=O)N[C@@H](Cc1ccccc1)C(=O)O` as the compound, how does the Potency read?
Answer: inconclusive: 79.4 µM [inhibitor, single point]

Question: How did the max response, negative = inhibition turn out when `CCOC(=O)N1CCN(C(=O)c2ccc3c(c2)N(CC)CCS3)CC1` was run?
Answer: inactive: -16.5%

Question: How did the Potency turn out when `COc1cc(O)c2c(c1)OC(c1ccc(O)cc1)CC2=O` (centres undefined) was run?
Answer: active: 50.1 µM

Question: How did the Potency turn out when `Cc1ccc(S(=O)(=O)N2[C@@H](c3ccc(F)cc3)C(C(=O)O)=C[C@H]2CC2CCCC2)cc1` was run?
Answer: inconclusive: 6.31 µM [inhibitor, full curve, poor fit]

Question: How did the Potency turn out when `CCCc1nc2c(s1)CCc1onc(-c3ccc(OC)cc3)c1-2` was run?
Answer: inconclusive: 89.1 µM [inhibitor, single point]

Question: With `COc1ccccc1N1CC(C)(C)C(=O)N(C(=O)c2ccc(Cl)cc2)C1=S` as the compound, how does the max response, negative = inhibition read?
Answer: inactive: -8.77%

Question: With `N#C/C(=C\c1ccccc1C(F)(F)F)C(=O)Nc1ccccc1` as the compound, how does the Potency read?
Answer: inconclusive: 100 µM [inhibitor, single point]

Question: Which Potency does the source give for `CCOC(=O)/C(=C\c1cccnc1)C(=O)c1cc(C(C)=O)c(Nc2ccccc2)s1` here?
Answer: active: 7.94 µM

Question: Which max response, negative = inhibition does the source give for `Cc1nn(C)c2ncc(C(N)=O)c(Oc3ccc(Cl)cc3)c12` here?
Answer: inactive: -8.51%

Question: With `COc1ccc(/C=C/C(=O)NC(CCSC)C(=O)O)cc1` (centres undefined) as the compound, how does the max response, negative = inhibition read?
Answer: inactive: -4.02%

Question: For `CCN(CC)c1ccc(N=Cc2ccccc2[N+](=O)[O-])cc1`, which Potency is on record?
Answer: inconclusive: 11.2 µM [inhibitor, partial curve, poor fit]

Question: For `Cc1cccc(NC2=C(NCCO)C(=O)c3ccccc3C2=O)c1`, which Potency is on record?
Answer: inconclusive: 89.1 µM [inhibitor, partial curve, poor fit]

Question: How did the max response, negative = inhibition turn out when `COc1cccc(CN(C(=O)c2oc3cc(C)ccc3c2C)C2CCS(=O)(=O)C2)c1` (centres undefined) was run?
Answer: inactive: 3.07%

Question: For `COc1ccc(C(NC(=O)/C=C/c2ccco2)c2ccc(OC)cc2)cc1`, which Potency is on record?
Answer: inconclusive: 79.4 µM [inhibitor, single point]
